Library screening results

Amino acid sequences for entries named in this document (tags omitted).
UniProt E9BF75, entry or part of it: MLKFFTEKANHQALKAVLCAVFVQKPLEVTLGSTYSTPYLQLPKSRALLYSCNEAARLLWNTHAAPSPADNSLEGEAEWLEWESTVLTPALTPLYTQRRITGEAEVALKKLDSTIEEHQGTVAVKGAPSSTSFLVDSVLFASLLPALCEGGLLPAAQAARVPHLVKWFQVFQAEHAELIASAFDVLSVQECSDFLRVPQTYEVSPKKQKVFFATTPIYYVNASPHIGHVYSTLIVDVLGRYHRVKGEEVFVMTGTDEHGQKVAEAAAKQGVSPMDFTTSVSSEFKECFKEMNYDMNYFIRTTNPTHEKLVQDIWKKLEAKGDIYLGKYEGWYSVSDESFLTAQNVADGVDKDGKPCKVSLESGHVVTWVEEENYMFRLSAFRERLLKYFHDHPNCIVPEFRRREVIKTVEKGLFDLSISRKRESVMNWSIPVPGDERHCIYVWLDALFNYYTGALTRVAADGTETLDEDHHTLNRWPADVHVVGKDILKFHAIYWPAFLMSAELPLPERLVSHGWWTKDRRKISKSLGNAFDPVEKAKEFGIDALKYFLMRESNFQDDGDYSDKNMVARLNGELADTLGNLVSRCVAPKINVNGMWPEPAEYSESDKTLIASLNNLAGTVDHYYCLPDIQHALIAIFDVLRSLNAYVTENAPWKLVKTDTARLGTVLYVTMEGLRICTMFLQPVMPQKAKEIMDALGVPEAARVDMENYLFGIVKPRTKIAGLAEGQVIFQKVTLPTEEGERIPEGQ

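Methionyl-tRNA synthetase (putative), Leishmania donovani (UniProt E9BF75). Primary screen of methionyl-tRNA synthetase; the read-out is not stated. The test concentration is not given. Values are per cent inhibition. Size under these conditions: about 68,000 compounds, about 24 of them at 50% or above in at least one test.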

All values are in %. How 0% and 100% were set is not recorded. Most values in the screen are low, and negative values occur. The compounds are a random part of those screened.

With Cc1cc(SCC(N)=O)nc(-c2cccc(F)c2)n1 the screen gave 5.898%. COCC(=O)N1CCN(Cc2coc(-c3cccc(F)c3)n2)CC1 read 19.84%. For COc1cccc([C@@]2(O)CC[C@@H]3CN(C(=O)c4ccn(C)n4)C[C@@H]32)c1 the result was 6.395%. Cc1cccnc1CN1CC[C@H](Oc2cccc(F)c2)[C@@](C)(O)C1 read 10.59%. CN(C(=O)Cn1nc(-c2ccc(F)cc2)oc1=O)C1CCS(=O)(=O)C1 (stereo not drawn) gave 0.885%. For O=C(c1n[nH]c2ccccc12)N1CCCC1c1noc(C2CC2)n1 (stereo not drawn) the result was 0.4695%.

CN(C)CCN1CC(C(=O)NCc2ccc(C#N)cc2)CC1=O (stereo not drawn) read 15.08%. Result for NC(=O)CSCCC(=O)NCC1CC1 was 6.017%. CCCS(=O)(=O)N1C[C@@H](Oc2ncccc2F)[C@H]2OCCC[C@H]21 read 9.492%. Result for Cc1ncc2c(n1)CN(Cc1nc(-c3ccsc3)oc1C)CC2 was 15.87%. Result for Cc1csc(CN2CC[C@@](O)(C3CCOCC3)[C@H](C)C2)n1 was 8.873%. For CS(=O)(=O)N1CCCC12CCCN(c1nccs1)C2 (stereo not drawn) the result was 12.11%.

Result for Cc1ccc(CN2Cc3nnn(C)c3C(COCc3ccccn3)C2)s1 (stereo not drawn) was 19.29%. Result for O=C1CCC(C(=O)Nc2ccc(=O)n(Cc3ccccc3Cl)c2)N1 (stereo not drawn) was 15.68%. Result for Cc1ncccc1C(=O)NC1(c2cccc(F)c2)CCOCC1 was 10.56%. CCc1nc(CN(C(C)=O)C2CCN(CCc3ccccn3)C2)no1 (stereo not drawn) gave 10.99%. For COCCN1C[C@@H](C)[C@@]2(COCCN(C(=O)c3cnc(C)cn3)C2)C1 the result was 9.623%. CCOCCCNC(=O)c1nnn(Cc2ccccc2)c1OC read 24.37%.

With CNC(=O)c1ccc(C(=O)N2CCCC(n3cc(C)cn3)C2)cn1 (stereo not drawn) the screen gave 9.312%. Cc1ccc(CN(CCCO)Cc2nc3ccccc3[nH]2)s1 read 12.93%. Result for CN(CCCc1nccn1C)c1nccc(-c2cc(C(=O)O)ccn2)n1 was 3.394%. Result for CCc1nccn1CCC(=O)N1CC[C@@H](c2ccc(F)cc2)[C@H](O)C1 was 18.44%. With CC(C)C(C#N)N1CCN(Cc2nccn2CC(F)(F)F)CC1 (stereo not drawn) the screen gave 10.07%. With Cc1nc[nH]c1CN(Cc1ccc(F)cc1)C1CC(C)(C)NC(C)(C)C1 the screen gave 8.723%.

For Cc1cnc2[nH]c(C(F)(F)F)c(CN3CCCC(CO)C3)c2c1 (stereo not drawn) the result was -1.064%. O=C(NCCNc1ccc(C(F)(F)F)cn1)c1cncc(Br)c1 gave 13.19%. With COC1(CNS(=O)(=O)c2ccccc2Br)CCSC1 (stereo not drawn) the screen gave 5.072%. For CC(C)Cc1ncc2c(n1)CN(c1nccc(N(C)C)n1)C2 the result was 14.07%. Result for Cc1nc(C)n(CC2CN(CCOCC(F)(F)F)CCO2)n1 (stereo not drawn) was 11.19%. With O=c1n(Cc2cccc(C(F)(F)F)c2)nc2ncccn12 the screen gave 10.03%.

For CCC1CN(Cc2nnc(C(C)C)o2)CCC(=O)N1Cc1ccccc1 (stereo not drawn) the result was 12.94%. CCn1nnc2c1C(COCC(=O)N(C)C)CN(Cc1ccco1)C2 (stereo not drawn) gave 6.011%. For O=C(CCc1ccccc1Br)NS(=O)(=O)c1ccc2c(c1)OCCO2 the result was 12.32%. Result for O=C(c1cc(CC2(NCC3CCCCC3)COC2)no1)N1CCCCC1 was 12.09%. O=C(c1ccn(-c2ccc(F)cc2)n1)N1CCCC(n2ccnc2)C1 (stereo not drawn) read 21.67%. For COc1cccc(CN2CCCCC2Cn2nc(C)nc2C)c1 (stereo not drawn) the result was 14.21%.

Result for CCC(C)N1CCc2nc(N3CCCC3)nc(NC(C)C)c2C1 (stereo not drawn) was 11.23%. With CCOc1ccc(CN(CC)C(=O)c2ccc(C)[nH]c2=O)cc1OC the screen gave 21.86%. Result for COc1cc(C(=O)N(Cc2ccco2)C2CC2)cc(OC)c1OC was 3.183%. CCN(C)CC1CCN(C(=O)NCCC2Cc3ccccc3C2)C1 (stereo not drawn) read 8.383%.

The last 5 entries again:

structure	Inhibition
COc1cccc(CN2CCCCC2Cn2nc(C)nc2C)c1 (stereo not drawn)	14.21
CCC(C)N1CCc2nc(N3CCCC3)nc(NC(C)C)c2C1 (stereo not drawn)	11.23
CCOc1ccc(CN(CC)C(=O)c2ccc(C)[nH]c2=O)cc1OC	21.86
COc1cc(C(=O)N(Cc2ccco2)C2CC2)cc(OC)c1OC	3.183
CCN(C)CC1CCN(C(=O)NCCC2Cc3ccccc3C2)C1 (stereo not drawn)	8.383

From ChEMBL document CHEMBL3988442, “University of Dundee, Small-Polar-MMV Screening Library” (2021).